# Laboratory results taken from PubChem BioAssay AID330 (DTP/NCI, 2004).
# The list does not hold the whole screen: it gathers tests that were run many times, whatever their T/C, doses with no T/C, and many T/C values between a quarter and a half above the control. Other doses and runs of a compound stand elsewhere. T/C: endpoint of the treated group in % of that of the vehicle group. Some doses have a count of surviving animals in place of a T/C: the source files T/C as zero there, which appears to mark a toxic dose or a test without result, not a measured value. Some survivor counts are full or nearly so, which does not show that the dose was tolerated: survival well below the control is almost never listed, so the zero probably covers shortened survival too. Survivors were counted at the toxicity check, usually on the fifth day, unless a day is given; later deaths do not show. Schedule codes are those of the source, taken here to give the interval after Q, in days (D) or hours (H), and the number of doses after X. Some structures stand for samples that the source files as different forms (salt, stereo form or complex); doses refer to the form tested. Some entries were tested several times; the results are listed from low to high. Brackets with × say how often a value occurs here. Where survival is the endpoint, the PubChem record calls one and a half times the control and up active, and a quarter to a half above the control has no call in these data; cut-offs in other NCI protocols can differ. Some T/C values carry the count of animals alive at the toxicity check (mostly the fifth day); where none is given, no animal had died by that day.
# System: P388 leukemia ip, CD2F1 mice, survival T/C
# Assay: NCI In Vivo Anticancer Drug Screen. Data for tumor model P388 Leukemia (intraperitoneal) in CD2F1 (CDF1) mice
# Details: T/C endpoint: median survival time, higher T/C = longer survival
# [1] = dose: 80.0 mg/kg/injection, schedule: Q01DX005 (ip), vehicle: Klucel (hydroxypropylcellulose) (HPC)
# [2] = dose: 80.0 mg/kg/injection, schedule: Q01DX009 (ip), vehicle: Klucel (hydroxypropylcellulose) (HPC)
# [3] = dose: 100.0 mg/kg/injection, schedule: Q01DX001 (ip), vehicle: Klucel (hydroxypropylcellulose) (HPC)
# [4] = dose: 200.0 mg/kg/injection, schedule: Q01DX001 (ip), vehicle: Klucel (hydroxypropylcellulose) (HPC)
# [5] = dose: 240.0 mg/kg/injection, schedule: Q04DX003 (ip), vehicle: Klucel (hydroxypropylcellulose) (HPC)
# [6] = dose: 400.0 mg/kg/injection, schedule: Q01DX001 (ip), vehicle: Klucel (hydroxypropylcellulose) (HPC)
structure (smiles),measurement,setting,value
COc1cc2c[n+](C)c3c4cc5c(cc4ccc3c2cc1OC)OCO5,survivor count,"dose: 64.0 mg/kg/injection, schedule: Q01DX009 (ip), vehicle: water",1 of 10
same,survivor count,"dose: 64.0 mg/kg/injection, schedule: Q01DX009 (sc), vehicle: water",6 of 10
same,survivor count,"dose: 64.0 mg/kg/injection, schedule: Q03HX008 (ip), vehicle: saline with Tween-80",9 of 10
same,survivor count,"dose: 64.0 mg/kg/injection, schedule: Q04DX003 (ip), vehicle: water",9 of 10
same,T/C,"dose: 64.0 mg/kg/injection, schedule: Q08DX002 (ip), vehicle: saline with Tween-80",144 % of control
same,T/C,"dose: 72.0 mg/kg/injection, schedule: Q04DX003 (ip), vehicle: distilled water + Tween-80",133 % of control
same,T/C,[1],"87, 91, 95, 107, 115, 125, 170 % of control"
same,survivor count,[1],"3 of 6, 2 of 3, 5 of 6, 3 of 3, 6 of 6"
same,T/C,[2],"90, 91, 92, 93, 95, 104, 118, 141, 156 % of control"
same,survivor count,[2],"0 of 6, 1 of 3, 2 of 3, 4 of 6, 5 of 6, 3 of 3 (2×), 6 of 6 (2×)"
same,survivor count,"dose: 80.0 mg/kg/injection, schedule: Q01DX009 (ip), vehicle: water",4 of 6
same,T/C,[3],"115, 122 [5 of 6 alive], 123, 124, 127, 128, 134, 138, 139, 143 (2×), 145 (2×), 146, 147, 150 (2×), 153, 154, 157, 160 (2×), 166, 168, 170, 171, 174, 177, 180 (2×), 200 % of control"
same,survivor count,[3],6 of 6
same,survivor count,"dose: 100.0 mg/kg/injection, schedule: Q01DX009 (ip), vehicle: saline with Tween-80",3 of 6
same,T/C,"dose: 100.0 mg/kg/injection, schedule: Q04DX002 (ip), vehicle: Klucel (hydroxypropylcellulose) (HPC)",144 % of control
same,T/C,"dose: 120.0 mg/kg/injection, schedule: Q04DX002 (ip), vehicle: Klucel (hydroxypropylcellulose) (HPC), evaluated on day 30","99 [2 of 3 alive], 104, 108, 113, 117, 119 [2 of 3 alive], 121, 123, 125, 127, 128, 133 (2×), 134, 138, 146, 150 (3×), 153, 162, 165 (2×), 166 [2 of 3 alive], 168, 172, 183, 192, 202, 203, 204 % of control"
same,T/C,"dose: 120.0 mg/kg/injection, schedule: Q04DX002 (ip), vehicle: Klucel (hydroxypropylcellulose) (HPC), evaluated on day 35","149, 158, 168 % of control"
same,survivor count,"dose: 120.0 mg/kg/injection, schedule: Q04DX002 (ip), vehicle: Klucel (hydroxypropylcellulose) (HPC)",3 of 3 and 6 of 6
same,T/C,"dose: 120.0 mg/kg/injection, schedule: Q04DX003 (ip), vehicle: Klucel (hydroxypropylcellulose) (HPC)","100, 106, 110, 116, 117 (2×), 122 (3×), 126, 133, 134, 137 (2×), 139, 142, 143 [2 of 3 alive], 144, 145, 148, 149, 150, 151, 152, 153, 155, 157, 159, 167, 169, 170, 172, 191 % of control (2×)"
same,T/C,"dose: 128.0 mg/kg/injection, schedule: Q01DX001 (ip), vehicle: saline with Tween-80",144 % of control
same,survivor count,"dose: 128.0 mg/kg/injection, schedule: Q01DX001 (ip), vehicle: water",1 of 10
same,survivor count,"dose: 128.0 mg/kg/injection, schedule: Q01DX001 (sc), vehicle: water",10 of 10
same,survivor count,"dose: 128.0 mg/kg/injection, schedule: Q01DX009 (ip), vehicle: saline with Tween-80",9 of 10
same,survivor count,"dose: 128.0 mg/kg/injection, schedule: Q04DX003 (ip), vehicle: water",0 of 10
same,survivor count,"dose: 128.0 mg/kg/injection, schedule: Q08DX002 (ip), vehicle: water",0 of 10
same,T/C,[4],"90, 95, 116, 119, 121, 127, 127 [5 of 6 alive], 129 [5 of 6 alive], 131 [5 of 6 alive], 132, 136, 139, 142, 148, 150, 152 (2×), 154, 156 (2×), 157 (2×), 161, 163, 165, 166, 170 [5 of 6 alive], 181, 205 % of control"
same,survivor count,[4],3 of 3 and 6 of 6
same,survivor count,"dose: 200.0 mg/kg/injection, schedule: Q04DX003 (ip), vehicle: distilled water + Tween-80",6 of 8
same,T/C,"dose: 240.0 mg/kg/injection, schedule: Q04DX002 (ip), vehicle: Klucel (hydroxypropylcellulose) (HPC), evaluated on day 30","87, 89, 91 (2×), 94, 100 (2×), 101, 104, 105, 109, 112, 113, 123, 125, 127, 132 [5 of 6 alive], 133, 136, 140 (2×), 152, 171, 175, 188 % of control"
same,T/C,"dose: 240.0 mg/kg/injection, schedule: Q04DX002 (ip), vehicle: Klucel (hydroxypropylcellulose) (HPC), evaluated on day 35",104 and 109 % of control
same,survivor count,"dose: 240.0 mg/kg/injection, schedule: Q04DX002 (ip), vehicle: Klucel (hydroxypropylcellulose) (HPC)","2 of 3, 5 of 6 (2×), 3 of 3, 6 of 6"
same,T/C,[5],"87, 89, 91 (2×), 94 (4×), 95 [2 of 3 alive], 98, 98 [5 of 6 alive], 99 (3×), 102, 104, 105 (3×), 107, 108, 111, 116, 119, 121, 134, 148, 195 % of control"
same,survivor count,[5],"2 of 3, 5 of 6, 3 of 3, 6 of 6"
same,T/C,[6],"86, 87 [5 of 6 alive], 88 [2 of 3 alive], 90 [4 of 6 alive], 91, 95, 96 (2×), 96 [4 of 6 alive], 97, 102, 103, 108 [2 of 3 alive], 109 [5 of 6 alive], 110 [5 of 6 alive], 112 (2×), 116, 121 (3×), 133, 138, 142, 200 % of control"
same,survivor count,[6],"1 of 3, 4 of 6, 5 of 6, 3 of 3, 6 of 6"
same,survivor count,"dose: 400.0 mg/kg/injection, schedule: Q04DX002 (ip), vehicle: Klucel (hydroxypropylcellulose) (HPC)",6 of 6
same,survivor count,"dose: 512.0 mg/kg/injection, schedule: Q01DX001 (ip), vehicle: saline with Tween-80",4 of 10
